# Experimental data taken from paper PMC12660846.
# Amino acid sequences for entries named in this document (tags omitted). Residues count along the entry.
# UniProt P27467, residues 19-352: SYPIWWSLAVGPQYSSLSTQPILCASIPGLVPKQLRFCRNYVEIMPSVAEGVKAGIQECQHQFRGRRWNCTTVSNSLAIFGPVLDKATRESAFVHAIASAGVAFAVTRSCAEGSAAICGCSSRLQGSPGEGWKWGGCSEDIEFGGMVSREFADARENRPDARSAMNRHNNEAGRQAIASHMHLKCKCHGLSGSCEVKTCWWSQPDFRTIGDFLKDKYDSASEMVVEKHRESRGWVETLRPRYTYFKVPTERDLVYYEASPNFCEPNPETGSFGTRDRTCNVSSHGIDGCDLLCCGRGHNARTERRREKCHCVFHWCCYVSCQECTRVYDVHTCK
# UniProt Q03135: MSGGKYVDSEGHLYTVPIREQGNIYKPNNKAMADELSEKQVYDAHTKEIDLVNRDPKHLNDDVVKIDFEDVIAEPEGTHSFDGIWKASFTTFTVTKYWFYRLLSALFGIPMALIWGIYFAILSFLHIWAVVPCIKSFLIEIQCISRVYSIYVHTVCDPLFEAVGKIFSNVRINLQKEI
# UniProt O43795: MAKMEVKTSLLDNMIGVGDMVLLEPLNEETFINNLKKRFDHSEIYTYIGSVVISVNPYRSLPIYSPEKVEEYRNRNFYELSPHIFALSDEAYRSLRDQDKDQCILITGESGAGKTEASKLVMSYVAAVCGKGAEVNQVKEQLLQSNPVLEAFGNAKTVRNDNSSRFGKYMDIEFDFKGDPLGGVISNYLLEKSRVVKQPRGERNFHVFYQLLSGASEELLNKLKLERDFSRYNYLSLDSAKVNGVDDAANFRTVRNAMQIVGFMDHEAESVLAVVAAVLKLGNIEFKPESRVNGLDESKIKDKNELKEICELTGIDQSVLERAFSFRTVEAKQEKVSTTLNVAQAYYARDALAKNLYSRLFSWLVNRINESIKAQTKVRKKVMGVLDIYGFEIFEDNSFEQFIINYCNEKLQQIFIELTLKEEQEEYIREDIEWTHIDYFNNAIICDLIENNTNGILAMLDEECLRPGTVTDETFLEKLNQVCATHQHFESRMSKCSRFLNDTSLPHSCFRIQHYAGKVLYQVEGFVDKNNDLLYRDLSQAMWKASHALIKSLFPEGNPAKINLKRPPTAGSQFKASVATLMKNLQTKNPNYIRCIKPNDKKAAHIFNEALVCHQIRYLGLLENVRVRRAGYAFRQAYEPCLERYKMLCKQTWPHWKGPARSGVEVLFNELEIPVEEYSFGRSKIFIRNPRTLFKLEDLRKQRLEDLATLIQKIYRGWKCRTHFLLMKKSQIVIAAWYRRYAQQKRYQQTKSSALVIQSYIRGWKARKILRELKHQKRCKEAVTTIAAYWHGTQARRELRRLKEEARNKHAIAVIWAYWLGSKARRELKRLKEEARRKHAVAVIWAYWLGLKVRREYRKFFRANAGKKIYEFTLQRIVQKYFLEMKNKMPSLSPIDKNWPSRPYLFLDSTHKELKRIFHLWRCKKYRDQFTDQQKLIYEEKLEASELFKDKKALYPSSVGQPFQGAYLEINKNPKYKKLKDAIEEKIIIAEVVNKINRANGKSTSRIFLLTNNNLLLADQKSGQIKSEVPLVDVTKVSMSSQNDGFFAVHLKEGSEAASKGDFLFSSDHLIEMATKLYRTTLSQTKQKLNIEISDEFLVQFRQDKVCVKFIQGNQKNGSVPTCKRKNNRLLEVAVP
# UniProt Q14980: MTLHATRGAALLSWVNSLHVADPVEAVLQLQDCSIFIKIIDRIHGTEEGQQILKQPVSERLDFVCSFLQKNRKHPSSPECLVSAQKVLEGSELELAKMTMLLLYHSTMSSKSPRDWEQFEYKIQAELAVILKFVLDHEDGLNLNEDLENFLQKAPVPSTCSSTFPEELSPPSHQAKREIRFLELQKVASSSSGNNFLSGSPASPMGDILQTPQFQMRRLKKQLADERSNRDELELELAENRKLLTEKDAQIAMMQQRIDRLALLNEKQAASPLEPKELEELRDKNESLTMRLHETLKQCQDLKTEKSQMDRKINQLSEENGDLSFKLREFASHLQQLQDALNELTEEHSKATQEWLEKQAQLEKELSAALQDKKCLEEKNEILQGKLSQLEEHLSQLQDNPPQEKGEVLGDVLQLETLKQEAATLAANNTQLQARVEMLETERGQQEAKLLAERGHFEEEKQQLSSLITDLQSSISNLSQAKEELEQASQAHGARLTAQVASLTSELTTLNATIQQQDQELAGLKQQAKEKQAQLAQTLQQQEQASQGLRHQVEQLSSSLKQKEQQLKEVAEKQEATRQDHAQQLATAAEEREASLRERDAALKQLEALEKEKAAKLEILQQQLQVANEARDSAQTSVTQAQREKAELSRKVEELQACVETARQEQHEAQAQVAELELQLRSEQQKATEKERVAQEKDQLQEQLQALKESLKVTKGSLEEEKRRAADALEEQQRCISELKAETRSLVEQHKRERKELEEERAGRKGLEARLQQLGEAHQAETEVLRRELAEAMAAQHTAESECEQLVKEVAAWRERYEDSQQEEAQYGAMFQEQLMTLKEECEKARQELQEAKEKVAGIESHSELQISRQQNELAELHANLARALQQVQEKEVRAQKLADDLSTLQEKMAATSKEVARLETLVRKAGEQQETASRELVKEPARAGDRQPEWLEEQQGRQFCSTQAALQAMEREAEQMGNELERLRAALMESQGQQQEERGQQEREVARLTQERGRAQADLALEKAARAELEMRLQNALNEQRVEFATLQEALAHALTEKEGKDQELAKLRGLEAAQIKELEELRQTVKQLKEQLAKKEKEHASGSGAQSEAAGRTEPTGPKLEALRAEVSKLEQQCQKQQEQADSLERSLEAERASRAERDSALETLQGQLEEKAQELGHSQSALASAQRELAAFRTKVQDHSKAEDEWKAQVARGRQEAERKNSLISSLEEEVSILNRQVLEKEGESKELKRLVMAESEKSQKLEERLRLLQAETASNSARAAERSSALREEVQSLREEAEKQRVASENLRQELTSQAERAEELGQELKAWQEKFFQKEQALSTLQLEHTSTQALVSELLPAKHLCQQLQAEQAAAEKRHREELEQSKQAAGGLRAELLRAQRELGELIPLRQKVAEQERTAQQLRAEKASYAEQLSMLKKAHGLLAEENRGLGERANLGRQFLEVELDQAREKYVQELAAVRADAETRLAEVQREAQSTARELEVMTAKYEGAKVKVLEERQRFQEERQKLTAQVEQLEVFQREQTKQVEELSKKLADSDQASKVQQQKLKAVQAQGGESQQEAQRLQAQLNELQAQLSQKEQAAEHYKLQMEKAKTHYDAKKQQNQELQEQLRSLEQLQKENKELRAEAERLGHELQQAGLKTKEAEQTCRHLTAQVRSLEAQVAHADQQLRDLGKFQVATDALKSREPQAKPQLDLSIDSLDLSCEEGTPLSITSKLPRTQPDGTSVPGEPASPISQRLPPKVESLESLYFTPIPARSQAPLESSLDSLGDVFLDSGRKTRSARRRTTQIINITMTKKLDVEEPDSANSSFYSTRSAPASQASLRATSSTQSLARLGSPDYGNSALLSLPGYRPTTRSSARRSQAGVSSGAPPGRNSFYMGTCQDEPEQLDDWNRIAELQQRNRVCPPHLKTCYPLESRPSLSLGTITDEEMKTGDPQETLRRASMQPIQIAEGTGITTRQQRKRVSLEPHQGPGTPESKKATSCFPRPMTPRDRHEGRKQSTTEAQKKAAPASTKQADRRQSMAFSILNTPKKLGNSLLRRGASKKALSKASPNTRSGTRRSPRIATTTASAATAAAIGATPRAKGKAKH
# No constants are given. Whether binding was seen depends on the method and setting. In cells and extracts the contact can be indirect. Some binding calls cover weakened binding; strength is not graded here. For some assays here: Tags and fused reporters may be left off the sequences shown.
# T1: sh-resistant EGFP-tagged LRP6 wild-type (human), O75581
# T1 chain: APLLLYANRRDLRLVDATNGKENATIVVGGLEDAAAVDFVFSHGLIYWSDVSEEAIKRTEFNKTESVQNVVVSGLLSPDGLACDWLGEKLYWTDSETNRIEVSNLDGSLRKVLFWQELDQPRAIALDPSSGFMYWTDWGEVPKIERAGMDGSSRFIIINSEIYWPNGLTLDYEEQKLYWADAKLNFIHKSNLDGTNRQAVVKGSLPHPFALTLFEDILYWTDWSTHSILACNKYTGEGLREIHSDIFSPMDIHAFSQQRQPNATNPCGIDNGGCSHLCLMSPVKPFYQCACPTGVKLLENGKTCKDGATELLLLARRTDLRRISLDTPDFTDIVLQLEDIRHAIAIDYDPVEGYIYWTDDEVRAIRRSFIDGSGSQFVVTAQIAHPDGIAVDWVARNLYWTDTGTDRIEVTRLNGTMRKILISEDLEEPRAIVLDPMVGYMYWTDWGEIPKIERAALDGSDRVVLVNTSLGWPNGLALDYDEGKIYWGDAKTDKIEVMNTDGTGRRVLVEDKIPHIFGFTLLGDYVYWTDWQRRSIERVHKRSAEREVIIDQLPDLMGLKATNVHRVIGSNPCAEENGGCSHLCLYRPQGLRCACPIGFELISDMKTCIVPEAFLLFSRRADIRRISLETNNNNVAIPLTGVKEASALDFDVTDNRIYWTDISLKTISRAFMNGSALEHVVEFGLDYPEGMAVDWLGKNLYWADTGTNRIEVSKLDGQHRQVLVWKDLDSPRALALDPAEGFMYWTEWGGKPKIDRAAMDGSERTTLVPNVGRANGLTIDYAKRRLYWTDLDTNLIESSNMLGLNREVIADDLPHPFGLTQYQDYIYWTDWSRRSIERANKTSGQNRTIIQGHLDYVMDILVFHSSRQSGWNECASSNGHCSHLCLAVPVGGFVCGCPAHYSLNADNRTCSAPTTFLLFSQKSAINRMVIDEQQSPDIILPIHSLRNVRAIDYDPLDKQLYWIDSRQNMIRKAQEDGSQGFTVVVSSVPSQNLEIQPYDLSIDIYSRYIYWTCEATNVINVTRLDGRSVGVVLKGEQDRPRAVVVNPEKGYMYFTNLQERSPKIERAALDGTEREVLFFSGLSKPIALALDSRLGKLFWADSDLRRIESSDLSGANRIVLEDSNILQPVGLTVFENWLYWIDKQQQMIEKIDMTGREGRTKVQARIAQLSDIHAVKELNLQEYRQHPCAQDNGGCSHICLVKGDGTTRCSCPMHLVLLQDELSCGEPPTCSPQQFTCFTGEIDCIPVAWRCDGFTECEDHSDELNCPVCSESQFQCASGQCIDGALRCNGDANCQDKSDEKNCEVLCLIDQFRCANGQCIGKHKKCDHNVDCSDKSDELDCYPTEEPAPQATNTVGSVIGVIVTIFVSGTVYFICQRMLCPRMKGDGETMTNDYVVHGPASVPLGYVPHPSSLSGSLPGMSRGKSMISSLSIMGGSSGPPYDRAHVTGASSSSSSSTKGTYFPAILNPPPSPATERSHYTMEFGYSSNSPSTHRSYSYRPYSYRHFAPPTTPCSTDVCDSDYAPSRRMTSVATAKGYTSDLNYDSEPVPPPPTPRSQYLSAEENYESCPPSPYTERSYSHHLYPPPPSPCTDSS
# T2: LRP6-FLAG-APEX2, O75581
# T2 chain: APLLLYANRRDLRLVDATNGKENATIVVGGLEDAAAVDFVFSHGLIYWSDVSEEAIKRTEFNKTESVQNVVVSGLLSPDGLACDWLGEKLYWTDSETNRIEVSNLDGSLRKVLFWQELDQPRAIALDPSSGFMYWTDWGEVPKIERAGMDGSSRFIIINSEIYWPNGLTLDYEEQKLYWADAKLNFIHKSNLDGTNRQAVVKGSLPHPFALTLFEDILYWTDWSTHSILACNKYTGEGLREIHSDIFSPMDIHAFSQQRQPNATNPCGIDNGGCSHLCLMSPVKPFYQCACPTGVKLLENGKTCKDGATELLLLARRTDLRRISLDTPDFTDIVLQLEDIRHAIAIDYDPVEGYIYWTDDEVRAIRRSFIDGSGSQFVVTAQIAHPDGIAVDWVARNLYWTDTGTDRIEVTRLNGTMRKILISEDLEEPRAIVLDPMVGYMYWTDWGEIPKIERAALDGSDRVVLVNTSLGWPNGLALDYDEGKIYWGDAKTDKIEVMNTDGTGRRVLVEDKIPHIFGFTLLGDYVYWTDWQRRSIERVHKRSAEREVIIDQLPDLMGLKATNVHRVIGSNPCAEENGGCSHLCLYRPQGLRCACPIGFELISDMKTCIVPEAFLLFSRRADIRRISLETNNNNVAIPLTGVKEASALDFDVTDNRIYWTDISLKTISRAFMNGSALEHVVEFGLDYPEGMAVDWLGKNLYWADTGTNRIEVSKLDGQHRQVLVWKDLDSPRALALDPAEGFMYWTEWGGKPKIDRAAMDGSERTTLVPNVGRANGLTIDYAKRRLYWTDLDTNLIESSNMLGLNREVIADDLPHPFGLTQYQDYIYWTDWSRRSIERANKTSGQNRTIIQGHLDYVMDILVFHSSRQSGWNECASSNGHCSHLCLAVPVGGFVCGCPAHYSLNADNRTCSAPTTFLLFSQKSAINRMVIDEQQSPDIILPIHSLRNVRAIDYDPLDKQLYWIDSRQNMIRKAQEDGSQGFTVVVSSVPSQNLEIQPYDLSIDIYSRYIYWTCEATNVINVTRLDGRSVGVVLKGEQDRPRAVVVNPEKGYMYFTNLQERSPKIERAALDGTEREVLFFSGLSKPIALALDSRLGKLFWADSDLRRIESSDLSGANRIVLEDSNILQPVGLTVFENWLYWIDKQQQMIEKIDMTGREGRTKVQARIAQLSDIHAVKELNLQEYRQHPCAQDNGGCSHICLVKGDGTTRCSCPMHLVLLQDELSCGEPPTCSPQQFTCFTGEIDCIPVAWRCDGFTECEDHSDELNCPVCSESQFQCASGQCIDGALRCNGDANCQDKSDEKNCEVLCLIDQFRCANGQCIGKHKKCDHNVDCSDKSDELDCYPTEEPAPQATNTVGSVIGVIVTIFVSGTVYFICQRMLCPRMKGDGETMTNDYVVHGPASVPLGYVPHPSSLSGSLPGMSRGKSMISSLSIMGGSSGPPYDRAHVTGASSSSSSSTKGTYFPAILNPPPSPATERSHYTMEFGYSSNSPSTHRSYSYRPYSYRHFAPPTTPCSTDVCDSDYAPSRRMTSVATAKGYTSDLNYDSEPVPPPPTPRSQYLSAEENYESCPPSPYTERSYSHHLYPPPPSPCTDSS
# B1: LGN (protein, UniProt P81274 1-684)
# chain: MEENLISMREDHSFHVRYRMEASCLELALEGERLCKSGDCRAGVSFFEAAVQVGTEDLKTLSAIYSQLGNAYFYLHDYAKALEYHHHDLTLARTIGDQLGEAKASGNLGNTLKVLGNFDEAIVCCQRHLDISRELNDKVGEARALYNLGNVYHAKGKSFGCPGPQDVGEFPEEVRDALQAAVDFYEENLSLVTALGDRAAQGRAFGNLGNTHYLLGNFRDAVIAHEQRLLIAKEFGDKAAERRAYSNLGNAYIFLGEFETASEYYKKTLLLARQLKDRAVEAQSCYSLGNTYTLLQDYEKAIDYHLKHLAIAQELNDRIGEGRACWSLGNAYTALGNHDQAMHFAEKHLEISREVGDKSGELTARLNLSDLQMVLGLSYSTNNSIMSENTEIDSSLNGVRPKLGRRHSMENMELMKLTPEKVQNWNSEILAKQKPLIAKPSAKLLFVNRLKGKKYKTNSSTKVLQDASNSIDHRIPNSQRKISADTIGDEGFFDLLSRFQSNRMDDQRCCLQEKNCHTASTTTSSTPPKMMLKTSSVPVVSPNTDEFLDLLASSQSRRLDDQRASFSNLPGLRLTQNSQSVLSHLMTNDNKEADEDFFDILVKCQGSRLDDQRCAPPPATTKGPTVPDEDFFSLILRSQGKRMDEQRVLLQRDQNRDTDFGLKDFLQNNALLEFKNSGKKSADH
# B2: β-catenin, P35222 1-781 (protein)
# chain: MATQADLMELDMAMEPDRKAAVSHWQQQSYLDSGIHSGATTTAPSLSGKGNPEEEDVDTSQVLYEWEQGFSQSFTQEQVADIDGQYAMTRAQRVRAAMFPETLDEGMQIPSTQFDAAHPTNVQRLAEPSQMLKHAVVNLINYQDDAELATRAIPELTKLLNDEDQVVVNKAAVMVHQLSKKEASRHAIMRSPQMVSAIVRTMQNTNDVETARCTAGTLHNLSHHREGLLAIFKSGGIPALVKMLGSPVDSVLFYAITTLHNLLLHQEGAKMAVRLAGGLQKMVALLNKTNVKFLAITTDCLQILAYGNQESKLIILASGGPQALVNIMRTYTYEKLLWTTSRVLKVLSVCSSNKPAIVEAGGMQALGLHLTDPSQRLVQNCLWTLRNLSDAATKQEGMEGLLGTLVQLLGSDDINVVTCAAGILSNLTCNNYKNKMMVCQVGGIEALVRTVLRAGDREDITEPAICALRHLTSRHQEAEMAQNAVRLHYGLPVVVKLLHPPSHWPLIKATVGLIRNLALCPANHAPLREQGAIPRLVQLLVRAHQDTQRRTSMGGTQQQFVEGVRMEEIVEGCTGALHILARDVHNRIVIRGLNTIPLFVQLLYSPIENIQRVAAGVLCELAQDKEAAEAIEAEGATAPLTELLHSRNEGVATYAAAVLFRMSEDKPQDYKKRLSVELTSSLFRTEPMAWNETADLGLDIGAQGEPLGYRQDDPSYRSFHSGGYGQDALGMDPMMEHEMGGHHPGADYPVDGLPDLGHAQDLMDGLPPGDSNQLAWFDTDL
# Experiments:
# [1] = molecular target: murine Wnt3a (mouse) (UniProt P27467); assay: pull-down; murine Wnt3a covalently immobilised on magnetic Dynabeads, added to live metaphase HeLa cells; lysis in 75 mM Na-HEPES pH 7.5, 0.15 M KCl, 0.2% NP-40 without clearing, magnetic isolation, 3 washes; immunoblot; BSA-coated beads as control; only the target purified
# [2] = molecular target: LRP6-M5 mutant (EGFP-tagged, sh-resistant) (human) (UniProt O75581); assay: co-IP; anti-GFP mAb-agarose beads on mitotic lysate of HeLa cells (shLRP6) transfected with pEGFP-N1-LRP6-WT or M5, treated with Wnt3a-conditioned medium; 150 mM KCl, 0.2% NP-40, 2 h at 4 °C; immunoblot
# [3] = molecular target: sh-resistant EGFP-tagged LRP6 wild-type (human) (UniProt O75581); assay: as above
# [4] = molecular target: LRP6-FLAG-APEX2 (UniProt O75581); assay: co-IP; anti-FLAG M2 beads on mitotic lysate of HeLa clone expressing LRP6-FLAG-APEX2, cells treated with Wnt3a-conditioned medium (Wnt-ON) for 3 h; 150 mM KCl, 0.2% NP-40, 4 h at 4 °C; immunoblot
# [5] = molecular target: LRP6-FLAG-APEX2 (UniProt O75581); assay: condition: only cells treated with DKK1-conditioned medium (Wnt-OFF); co-IP; anti-FLAG M2 beads on mitotic lysate of HeLa clone expressing LRP6-FLAG-APEX2, cells treated with DKK1-conditioned medium (Wnt-OFF) for 3 h; 150 mM KCl, 0.2% NP-40, 4 h at 4 °C; immunoblot
# [6] = molecular target: T1, sh-resistant EGFP-tagged LRP6 wild-type …; assay: co-IP; anti-GFP mAb-agarose beads on mitotic lysate of HeLa cells (shLRP6) transfected with pEGFP-N1-LRP6-WT or M5, treated with Wnt3a-conditioned medium; 150 mM KCl, 0.2% NP-40, 2 h at 4 °C; immunoblot; settings: remark: other sources report otherwise
# [7] = molecular target: T2, LRP6-FLAG-APEX2, O75581; assay: co-IP; anti-FLAG M2 beads on mitotic lysate of HeLa clone expressing LRP6-FLAG-APEX2, cells treated with Wnt3a-conditioned medium (Wnt-ON) for 3 h; 150 mM KCl, 0.2% NP-40, 4 h at 4 °C; immunoblot; settings: remark: other sources report otherwise
molecule,measurement,setting,value
MACF1 (from UniProt Q9UPN3 1-7388),binding,[1],binds
caveolin-1 (from UniProt Q03135 1-178),binding,[1],binds
dynactin subunit p150^Glue (from UniProt Q14203-1 1-1278),binding,[1],binds
myosin1B (from UniProt O43795 1-1136),binding,[1],binds
nuclear mitotic apparatus protein (NuMA) (from UniProt Q14980 1-2115),binding,[2],no binding
same,binding,[3],binds
same,binding,[1],binds
same,binding,[4],binds
same,binding,[5],no binding
β-catenin (from UniProt P35222 1-781),binding,[2],no binding
same,binding,[5],no binding
B1,binding,[1],binds
B2,binding,[6],binds
same,binding,[7],binds
